US20260258115A1
Results are given in words; binding and its absence hold for the method and conditions named.

B1: ADI-14402 (antibody, V domains shown)
VH: QVQLVQSGAEVKKPGASVKVSCKTSGYTFTNYGISWVRQAPGQGLEWMGWISAYNGNRNYAQKLQGRVTMTTDTSTSTAYMELRSLRSDDTAVYYCAREPPVIAAGDFSHWGQGTLVTVSS
VL: EIVLTQSPLSLPVTLGQPASISCRSSQSLVHSDANTYLSWFQQRPGQSPRRLIYKVSNRDSGVPDRFSGSGSGTDFTLKISRVEAEDVGVYYCMQGTHWPPDFGQGTRLEIK
B2: ADI-14585 (antibody, V domains shown)
VH: QVQLVQSGAEVKKPGASVKVSCKASGYTFANYGIGWVRQAPGQGLEWMGWISAYNGKTNYAQKFQGRVTMTTDTSTSTAYMELRSLRSDDTAVYYCAREPPVIAAGDFPHWGQGTLVTVSS
VL: ETTLTQSPLSLPVTLGQPASISCRSSQSLEHSDLNTYLSWFQQRPGQSPRRLIYKVSNRDSGVPDRFSGSGSGTDFTLRISRVEAEDVGVYYCMQGTHWPPDFGQGTRLEIK
B3: ADI-20966 (antibody, V domains shown)
VH: EVQLLESGGGLGKPGGSLRLSCAASGFKLSSYYMHWVRQAPGKGPEWVSSISASSSYINYADSVRGRFTVSRDNAKNSLFLQMNSLRVDDTAIYYCARGAPLTNFGMVLDSWGQGTLVTVSS
VL: QSVLTQPPSVSGAPGQRVTISCTGSGSNIGAGYDVHWYQQVPGRVPKLLIYANNNRPSGVPDRFSGSKSGTSASLAITGLQADDEADYYCQSYDRSLNVVFGGGTKLTVL
B4: ADI-20978 (antibody, V domains shown)
VH: EVQLVESGAEVKKPGASVKVSCKASGYTFGNYGISWVRQAPGQGLEWMGWISAYNGNSNYAQKFQGRVTMTTDTSASTAYMEVRSLRSDDTAVYYCARDVPVTAARLLDYWGQGTLVTVSS
VL: DIVLTQTPLSLPVTLGQPASISCRSSQSLVYSDGNTYLSWFQQRPGQSPRRLIYKVSNRDSGVPDRFSGSGSGTDFTLKISRVEAEDVGVYYCMQATDWLGYTFGQGTKLEIK
B5: ADI-14428 (antibody, V domains shown)
VH: EVQLLESGGGLVKPGGSLRLSCAASGFTFSDHYMSWIRQAPGKGLEWVSYISSTSSFTNYADSLKGRFTISRDNAKNSLYLQMNSLRAEDTAVYYCARPYIVALGTRAFDIWGQGTTVTVSS
VL: SYVLTQPPSVSVAPGKTARITCGGNNIGSKTVHWYQQKPGQAPVLVSYYDSDRPSGIPERFSGSNSGNTATLTISRVEAGDEADYYCQVWDGSSEHYVFGTGTKVTVL
B6: ADI-14603 (antibody, V domains shown)
VH: QVQLVQSGAEVKKPGESLKISCKGSGYTFTNYWIGWVRQMPGKGLEWMGIIYPGDSDTRYSPSFQGQVTISADKSITTAYLQWRVLKASDTAMYYCATMRGSSSHFHHWGQGTLVTVSS
VL: DIQVTQSPSSLSASVGDRVTITCRAGQGIGNYLAWYQQKPGKVPKVLIYAASTLQSGVPSRFSGSGSGTEFTLTISSLQPEDVATYYCQKYNNAPYAFGQGTRLEIK
B7: ADI-14591 (antibody, V domains shown)
VH: QVQLVQSGAEVKKPGESLRISCTGSGYTFTNYWISWVRQMPGKGLEWMGRIDPTDSYTNYSPSFQGHVTISADKSISTAYLQSSSLKASDTATYYCARHRRLVPAAMSRGYYGMDVWGQGTTVTVSS
VL: EIVMTQSPSSLSASVGDRATITCRASQSISSYLNWYQQKPGKAPKLLIYAASNLQSGAPSRFSGSGSGTDFTLTISSLQPEDFATYFCQQTYSTPYTFGQGTKVEIK
B8: ADI-14588 (antibody, V domains shown)
VH: QVQLVQSGAEVKKPGASVKVSCKVSGDTLTELSIHWVRQAPGKGHEWMGYFDHEDGEIMYAQKFQGRVTMTGDTSTDTAYMELSSLRSEDTAVYYCATVAAAGQFDYWGQGTLVTVSS
VL: DIQLTQSPSSLSASVGDRVTITCRARQSISTYLNWYQQKPGKAPKLLIYAASSLQSGVPSRFSGSGSGTDFTLTISSLQPEDFATYYCQQSYSSPYTFGQGTKVDIK
B9: ADI-21005 (antibody, V domains shown)
VH: EVQLVESGGAVVQPGGSLRLSCVASGLAFDEYTMHWVRQSSAKGLEWISLISWNGGITYYADSVKGRFTISRDNSKNSLYLQMNSLRTEDTATYFCARLGYGSGSDYGDDYWGQGTLVTVSS
VL: ETTLTQSPGTLSLSPGERATLSCRASQSVSNNYLAWYQQKPGQAPRLLIHGASTRVTGIPARFSGSGSGTDFTLTISRLEPEDFAVYYCHQYHSSPRTFGQGTKVDIK
B10: ADI-14403 (antibody, V domains shown)
VH: QVQLVESGGGLGKPGGSLRLSCAASGFTFSGYYMSWIRQAPGKGLEWVSDISSGSSFTNYADSVKGRFTISRDNAKNSLYLQMNSLKAEDTAVYYCARVPPDSYGSGSYSGDSWGQGTLVTVSS
VL: QSVVTQPPSVSGAPGQRVTISCTGSSSNIGAGYGVHWYQQLPGTAPKLLIYGNTNRPSGVPDRISGSKSGTSASLVITGLQAEDEADYYCQSYDSSLSGWVFGGGTKLTVL
B11: ADI-14586 (antibody, V domains shown)
VH: QVQLVQSGGGLVKPGGSLRLSCAASGFTFSDYYMSWIRQAPGKGLEWVSYISSSSSYTNYADSVKGRFTISRDNAKNSLYLQMNSLRAEDTAVYYCAKRTEYCSSTGCAYYFDYWGQGTLVTVSS
VL: QSVVTQPPSVSGAPGQRVTISCTGSSSNIGAGYDVHWYQQLPGTAPKLLIYGNSNRPSGVPDRFSGSKSGTSASLAITGLQAEDEADYYCQSYDSSLSGSVFGGGTKVTVL
B12: ADI-14587 (antibody, V domains shown)
VH: EVQLLESGGGLVKPGGSLRLSCAASGFTLTSYSMNWVRQAPGKGLEWVSSISSSSSYIHYADSVKGRFTISRDNAKNSLYLQMNSLRAEDTAVYYCAGSSLYPPFFDYWGQGTLVTVSS
VL: QSVVTQPPSVSGAPGQRVTISCTGSSSNLGAGYDVHWYQQLPGTAPKLLIYGNNNRPSGVPDRFSGSKSGTSASLAITGLQAEDEADYYCQSYDSSLSSVVFGGGTKLTVL
B13: ADI-20987 (antibody, V domains shown)
VH: QVQLVQSGGGVVHPGRSLRLSCAASGFSFSDYGMHWVRQAPGKGLEWVAVIWYDGINKYYADSVKGRFAISRDNSKNTLYLQMNSLRAGDTAVYYCARGGIAAAQRYFDYWGQGTLVTVSS
VL: ETTLTQSPGTLSLSPGERATLSCRASQTVSSSNLAWYQQKPGQAPRLLIYGASSRATGIPDRFSGSGSGTDFTLTISRLEPEDFAVYYCQQSGTSFGQGTKVDIK
B14: ADI-20984 (antibody, V domains shown)
VH: EVQLLETGAEVKKPGASVKVSCHVSGYGLTDLSMHWVRQAPGKRLQWMGSFDPQYGETIDTQNFQGRVTMTVDTSTATLYMQLSGLRSEDTAMYYCATPQSTGALDNWGQGTLVTVSS
VL: DIRVTQSPSSLSASVGDRVTITCRASQSISSYLSWYQQKPGKAPRLVIFAASNLQSGVPSRFSGTGSSRFSDSGSWTDFTLTISSLQPEDFAIYYCQQTYITPFTFGQGTKVDIK
B15: ADI-14412 (antibody, V domains shown)
VH: QVQLVQSGAEVKKPGASVKVSCKASGYTFTRYGISWVRQAPGQGLEWMGWISDYNGNTKNAEKFQGRVTMTTDTYTNIAYMELRSLRSDDTAVYYCARDWWITVGGIIAPFDYWGQGTLVTVSS
VL: ETTLTQSPGTLSLSPGERATLSCRASQSVSSDYLAWFQQKPGQAPRLLIYGASSRATDIPDRFSGSGSGTDFTLTISRLESEDFAVYYCLHYAGARTFGQGTKVEIK
B16: ADI-20980 (antibody, V domains shown)
VH: QVQLQESGPGLVKPSQTLSLTCSVSGGSVSSGDYYWTWIRQPAGKGLEWIGRIYNSGGTDYSPSLKSRVTISVDTSKNQFSLKLSSVTAADTAVYYCARGRGYYESPWGQGTLVTVSS
VL: EIVLTQSPATLSLSPGERATLSCRASQSVGIYIGWYQQKPGQAPRLLMYDASNRATGIPDRFSGSGSGTDFSLTISSLEPEDFAVYYCQLRSKWLTFGPGTKVEIK
B17: ADI-14424 (antibody, V domains shown)
VH: QVQLVQSGAEVKKPGESLKISCKGPDSSFSVYWIAWVRQMPGKGLEWMGVIYVGDSDTRYSPSFRGQVTISADKSMNTAYLQWSSLKASDTAMYFCARHIPPGPFDLWGQGTMVTVSS
VL: NFMLTQPHSVSASPGKTITISCTRSSGSIASNSVQWYQQRPGSAPTNVIYEDDQRPLGVPNRFSGSIDSSSNSASLTISGLKTEDEADYYCHSYHNSDQVFGGGTKLTVL
B18: ADI-14582 (antibody, V domains shown)
VH: QVQLVQSGAEVKKPGESLKISCKGPDSSFSVYWIAWVRQMPGKGLEWMGVIYVGDSDTRYSPSFRGQVTISADKSINTAYLQWSSLKASDTAMYFCARHIPPGPFDLWGQGTTVTVSS
VL: NFMLTQPHSVSASPGKTITISCTRSSGSIASNSVQWYQQRPGSAPTNVIYEDNQRPLGVPNRFSGSIDSSSNSASLTISGLKTEDEADYYCQSYHSSDQVFGGGTKVTVL
B19: ADI-21015 (antibody, V domains shown)
VH: QVQLVQSGAEVKKPGASVRVSCKVPGNTLSDLSMHWVRHTPGEGLEWMGSFDPEYGETIPAQRFQGRVTMTEDTSTDTAYMELTSLRFEDTAVYYCAAPHASGALQHWGQGTLVTVSS
VL: DIVMTQSPSSLSASVGDRVTITCRASQIISAYLNWYQQKAGKAPKLLIYAASSLQSGVPSRFSGSGSGTDFTLTISSLQPEDFATYYCQQTYITPFTFGQGTKLEIK
B20: ADI-21013 (antibody, V domains shown)
VH: QVQLQESGPGVVKPSETLSLTCTVSGGSISNTHSYWGWIRQSPGKGLEWIGSIYYTGSTYYNPSFRSRVTLSVDTSKNQFSLKLSSVTAADTAVYYCAAPDYFVLTDYKSTFDYWGRGALVTVSS
VL: DIVMTQSPGTLSLSPGGRATLSCRASQSVGSSSLAWYQQKPGQAPRLLIYGASSRAAGIPDRFSGSGSGTDFTLTINRLEPEDFAMYYCQQYGSSPLTFGGGTKVEIK
B21: ADI-14601 (antibody, V domains shown)
VH: EVQLLESGGGLVQPGGSLRLSCAASGFTFSSYAMNWVRQAPGKGLEWVSTISGSGSSTYYADSVEGRFTISRDNSKNTLYLQMNSLRAEDTAIYYCAKEPRDMYIQQWLDSWGQGTLVTVSS
VL: GIRLTQSPSSVSASVGDRVIITCRASQGIRSWLAWYQQKPGKAPKLLIYAASRLQSGVPSRFSGSGSETDFTLTISSLQPEDFASYYCQQANSFPLTFGGGTKVEIK

Target: RSV postfusion F (postF), subtype B (respiratory syncytial virus, subtype B)
Test: BLI, IgG

Binder | binding
B1 | no binding
B2 | no binding
B3 | no binding
B4 | no binding
B5 | no binding
B6 | no binding
B7 | no binding
B8 | no binding
B9 | no binding
B10 | no binding
B11 | no binding
B12 | no binding
B13 | no binding
B14 | no binding
B15 | no binding
B16 | no binding
B17 | no binding
B18 | no binding
B19 | no binding
B20 | no binding
B21 | no binding
